Earlier results in patent publication US11846224B2, “Urea removing apparatus” (ISUZU MOTORS LIMITED, priority 2022, dated 2023).

Conditions: in water at 80° C.

aqueous solubility of urea: 400 g/100 ml
Structure (SMILES): NC(N)=O [urea]
